Measurements as given in publication PMC8782181.
These are yes or no findings as the source states them, for the method shown. Binding seen in cells or lysates may run through a third protein. A yes stands for co-enrichment or nearness to the bait. Other partners may have been found. Values belong to the binder of their own block, whether it stands above or below them.

By UniProt entry, the sequences of proteins in these tests, tags left out.
UniProt P53297: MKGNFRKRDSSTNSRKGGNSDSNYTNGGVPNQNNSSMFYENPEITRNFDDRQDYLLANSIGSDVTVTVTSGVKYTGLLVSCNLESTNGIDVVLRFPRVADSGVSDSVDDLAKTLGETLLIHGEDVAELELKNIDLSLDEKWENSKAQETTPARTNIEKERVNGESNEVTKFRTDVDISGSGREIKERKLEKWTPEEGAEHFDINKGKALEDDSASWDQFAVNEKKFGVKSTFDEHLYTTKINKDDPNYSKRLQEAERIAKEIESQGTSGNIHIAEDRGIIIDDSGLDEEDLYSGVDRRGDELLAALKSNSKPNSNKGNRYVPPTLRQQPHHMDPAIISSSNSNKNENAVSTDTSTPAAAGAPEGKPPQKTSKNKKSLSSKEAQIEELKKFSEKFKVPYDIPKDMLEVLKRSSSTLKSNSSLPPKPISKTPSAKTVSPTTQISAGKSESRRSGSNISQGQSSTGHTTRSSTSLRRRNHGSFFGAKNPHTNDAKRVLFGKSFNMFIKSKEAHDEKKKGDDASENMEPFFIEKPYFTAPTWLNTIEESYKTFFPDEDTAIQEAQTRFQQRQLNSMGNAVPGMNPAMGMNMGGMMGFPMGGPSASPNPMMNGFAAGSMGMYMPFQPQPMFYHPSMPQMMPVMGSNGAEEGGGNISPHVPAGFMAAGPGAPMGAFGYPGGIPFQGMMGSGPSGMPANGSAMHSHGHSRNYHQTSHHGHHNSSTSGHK

Biological target: Pbp1-myc (S. cerevisiae) (UniProt P53297)
Experiment: affinity purification with mass spectrometry; cells unstressed or glucose-depleted (10 min for Dcp1-myc, 60 min for Pbp1-myc), cross-linked with 0.8% formaldehyde; 20,000 g pellet of the lysate in Blob100 buffer (20 mM Tris-HCl pH 8, 100 mM NaCl, 1 mM MgCl2, 0.5% NP40) on anti-c-Myc magnetic beads, eluted with Myc peptide; label-free LC-MS/MS; hits are the proteins that cluster (Mfuzz) with the tagged bait across IP, pellet, supernatant, total and unbound fractions

- binding: binds
B2: Scd6 (protein, UniProt P45978 1-349)
chain: MSQYIGKTISLISVTDNRYVGLLEDIDSEKGTVTLKEVRCFGTEGRKNWGPEEIYPNPTVYNSVKFNGSEVKDLSILDANINDIQPVVPQMMPPASQFPPQQAQSPPQAQAQAHVQTNPQVPKPESNVPAAVAGYGVYTPTSTETATASMNDKSTPQDTNVNSQSRERGKNGENEPKYQRNKNRSSNRPPQSNRNFKVDIPNEDFDFQSNNAKFTKGDSTDVEKEKELESAVHKQDESDEQFYNKKSSFFDTISTSTETNTNMRWQEEKMLNVDTFGQASARPRFHSRGLGRGRGNYRGNRGNRGRGGQRGNYQNRNNYQNDSGAYQNQNDSYSRPANQFSQPPSNVEF

- binding: binds
B3: Puf4 (protein, UniProt P25339 1-888)
chain: MSTKGLKEEIDDVPSVDPVVSETVNSALEQLQLDDPEENATSNAFANKVSQDSQFANGPPSQMFPHPQMMGGMGFMPYSQMMQVPHNPCPFFPPPDFNDPTAPLSSSPLNAGGPPMLFKNDSLPFQMLSSGAAVATQGGQNLNPLINDNSMKVLPIASADPLWTHSNVPGSASVAIEETTATLQESLPSKGRESNNKASSFRRQTFHALSPTDLINAANNVTLSKDFQSDMQNFSKAKKPSVGANNTAKTRTQSISFDNTPSSTSFIPPTNSVSEKLSDFKIETSKEDLINKTAPAKKESPTTYGAAYPYGGPLLQPNPIMPGHPHNISSPIYGIRSPFPNSYEMGAQFQPFSPILNPTSHSLNANSPIPLTQSPIHLAPVLNPSSNSVAFSDMKNDGGKPTTDNDKAGPNVRMDLINPNLGPSMQPFHILPPQQNTPPPPWLYSTPPPFNAMVPPHLLAQNHMPLMNSANNKHHGRNNNSMSSHNDNDNIGNSNYNNKDTGRSNVGKMKNMKNSYHGYYNNNNNNNNNNNNNNNSNATNSNSAEKQRKIEESSRFADAVLDQYIGSIHSLCKDQHGCRFLQKQLDILGSKAADAIFEETKDYTVELMTDSFGNYLIQKLLEEVTTEQRIVLTKISSPHFVEISLNPHGTRALQKLIECIKTDEEAQIVVDSLRPYTVQLSKDLNGNHVIQKCLQRLKPENFQFIFDAISDSCIDIATHRHGCCVLQRCLDHGTTEQCDNLCDKLLALVDKLTLDPFGNYVVQYIITKEAEKNKYDYTHKIVHLLKPRAIELSIHKFGSNVIEKILKTAIVSEPMILEILNNGGETGIQSLLNDSYGNYVLQTALDISHKQNDYLYKRLSEIVAPLLVGPIRNTPHGKRIIGMLHLDS

- binding: binds
B6: Rie1 (protein, UniProt P53316 1-781)
chain: MNIAEEPSDEVISSGPEDTDICSQQTSASAEAGDQSIKIERKTSTGLQLEQLANTNLLTIRIKWQLQEEEDDHCNSRITDQIMDTIQHYKGISVNNSDTETYEFLPDTRRLQVLEQNKDIYLYEHGSQEYEKSYKDNEEEDDWRYDTVLQAQFKYPKSLENACTDISELLKSEPIGQHIDKWSIGVNKHALTYPGNIFVGGIAKSLSIGELSFLFSKYGPILSMKLIYDKTKGEPNGYGFISYPLGSQASLCIKELNGRTVNGSTLFINYHVERKERERIHWDHVKENNNDDNFRCLFIGNLPYHNPEKVETLITPKEVIEVIKKELSKKFPDFDIISYYFPKRSNTRSSSSVSFNEEGSVESNKSSNNTNGNAQDEDMLKGYGFIKLINHEQALAAIETFNGFMWHGNRLVVNKAVQHKVYNNHNSHDRHPSISNHNDMEVLEFANNPMYDYNNYTYDRYYFNNNKNGNSNDTSNVRYFDSVRSTPVAEKMDLFYPQRESFSEGRGQRVPRFMGNKFDMYQYPSTSYSLPIPMSNQQESNLYVKHIPLSWTDEDLYDFYKSFGEIISVKVITVGGSKNKYRQQSNDSSSDNDLPVGSSRGYGFVSFESPLDAAKAILNTDGYQVSKDQVLSVSFAQKRGNLSSSDDDDQSQTDNSSKFQNFQPHNDYHKAYPTKYNKKFINALMTQNQSQQQVSRENYFIPLQYPNTNTKPVNSYNLISANQNNANWMMPMFPSFGFIPQVPPVPYIIPPQNPAANHIPIMANGSNEEEEFSSGDYSMDY

- binding: binds
B7: Rbg1 (protein, UniProt P39729 1-369)
chain: MSTTVEKIKAIEDEMARTQKNKATSFHLGQLKAKLAKLRRELLTSASSGSGGGAGIGFDVARTGVASVGFVGFPSVGKSTLLSKLTGTESEAAEYEFTTLVTVPGVIRYKGAKIQMLDLPGIIDGAKDGRGRGKQVIAVARTCNLLFIILDVNKPLHHKQIIEKELEGVGIRLNKTPPDILIKKKEKGGISITNTVPLTHLGNDEIRAVMSEYRINSAEIAFRCDATVDDLIDVLEASSRRYMPAIYVLNKIDSLSIEELELLYRIPNAVPISSGQDWNLDELLQVMWDRLNLVRIYTKPKGQIPDFTDPVVLRSDRCSVKDFCNQIHKSLVDDFRNALVYGSSVKHQPQYVGLSHILEDEDVVTILKK

The next lines start with the binder.

B1: Pub1 (protein, UniProt P32588 1-453)
chain: MSENNEEQHQQQQQQQPVAVETPSAVEAPASADPSSEQSVAVEGNSEQAEDNQGENDPSVVPANAITGGRETSDRVLYVGNLDKAITEDILKQYFQVGGPIANIKIMIDKNNKNVNYAFVEYHQSHDANIALQTLNGKQIENNIVKINWAFQSQQSSSDDTFNLFVGDLNVNVDDETLRNAFKDFPSYLSGHVMWDMQTGSSRGYGFVSFTSQDDAQNAMDSMQGQDLNGRPLRINWAAKRDNNNNNNYQQRRNYGNNNRGGFRQYNSNNNNNMNMGMNMNMNMNMNNSRGMPPSSMGMPIGAMPLPSQGQPQQSQTIGLPPQVNPQAVDHIIRSAPPRVTTAYIGNIPHFATEADLIPLFQNFGFILDFKHYPEKGCCFIKYDTHEQAAVCIVALANFPFQGRNLRTGWGKERSNFMPQQQQQGGQPLIMNDQQQPVMSEQQQQQQQQQQQQ
- binding: binds

B4: Phb1 (protein, UniProt P40961 1-287)
chain: MSNSAKLIDVITKVALPIGIIASGIQYSMYDVKGGSRGVIFDRINGVKQQVVGEGTHFLVPWLQKAIIYDVRTKPKSIATNTGTKDLQMVSLTLRVLHRPEVLQLPAIYQNLGLDYDERVLPSIGNEVLKSIVAQFDAAELITQREIISQKIRKELSTRANEFGIKLEDVSITHMTFGPEFTKAVEQKQIAQQDAERAKFLVEKAEQERQASVIRAEGEAESAEFISKALAKVGDGLLLIRRLEASKDIAQTLANSSNVVYLPSQHSGGGNSESSGSPNSLLLNIGR
- binding: binds

B5: Pil1 (protein, UniProt P53252 1-339)
chain: MHRTYSLRNSRAPTASQLQNPPPPPSTTKGRFFGKGGLAYSFRRSAAGAFGPELSRKLSQLVKIEKNVLRSMELTANERRDAAKQLSIWGLENDDDVSDITDKLGVLIYEVSELDDQFIDRYDQYRLTLKSIRDIEGSVQPSRDRKDKITDKIAYLKYKDPQSPKIEVLEQELVRAEAESLVAEAQLSNITRSKLRAAFNYQFDSIIEHSEKIALIAGYGKALLELLDDSPVTPGETRPAYDGYEASKQIIIDAESALNEWTLDSAQVKPTLSFKQDYEDFEPEEGEEEEEEDGQGRWSEDEQEDGQIEEPEQEEEGAVEEHEQVGHQQSESLPQQTTA
- binding: binds
